Source: PubChem BioAssay AID624291 (National Center for Advancing Translational Sciences (NCATS), 2012)
Screen size: about 350,000 compounds; about 220 (0.063%) were called active. The inconclusive results got no clear call from the source; some entries with a clear call stand among them for comparison. The call rests on the fitted dose curve; in most records, active means well fitted activation curve with a large enough effect; inconclusive means small, poorly fitted or top-dose-only effect; inactive means no such curve, though single readings can be large or run the other way. Where the call is inconclusive, the potency comes from a doubtful curve fit.

Test: qHTS for Activators of Integrin-Mediated Alleviation for Muscular Dystrophy; further: nearly all actives have a fitted effect of over 60% in size;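 on activation: 100% = response of the positive control SU9516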
Conditions: alpha7betagal myoblasts, beta-gal FDG fluorescence, 48 h; activation: at 38.3 µM (top of the series)
Procedure, shortened: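 alpha7betagal+/- myoblasts (passage 13, 250/well) treated 48 h at 37C with compounds at 1:260 dilution of DMSO stock. Lysed, then beta-galactosidase activity read as FDG fluorescence (ex 480/em 540) after 30 min, with pre-read for autofluorescence.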
Potency means the concentration at half of the fitted maximal effect.

Potency, inconclusive:
CC(C)N(Cc1nnc(-c2ccc(Cl)cc2)o1)C(=O)C1=COCCO1 5.01 µM [activator, single point]
Cc1ccc(CNC(=O)[C@H](Cc2ccccc2)NC(=O)C2CCNCC2)cc1 11.2 µM [activator, partial curve, poor fit]
COC(=O)CCCNC(=O)c1ccccn1 28.2 µM [activator, single point]
CCOc1ccc(CNC(=S)NCc2ccc(OCC)cc2)cc1 2.82 µM [activator, single point]
O=C(COC(=O)c1cc([N+](=O)[O-])ccc1N1CCOCC1)NCc1ccc(Cl)cc1Cl 20 µM [activator, single point]
CC1Cc2ccccc2N1C(=O)CNc1ccccc1N1CCCCC1 (centres undefined) 22.4 µM [activator, single point]
CCN(CC)C(=O)CSc1nnc(COc2ccccc2)n1CC 11.2 µM [activator, partial curve, poor fit]
CC(C)N1C(=O)CCC1C(=O)NCc1ccc(F)cc1Cl (centres undefined) 3.16 µM [activator, partial curve, poor fit]
O=C(CCCCC(=O)NCCCc1ccccc1)NCCCc1ccccc1 2 µM [activator, partial curve, poor fit]
CCOc1ccc(S(=O)(=O)Nc2ccc(Cl)cn2)c(C)c1C 17.8 µM [activator, single point]
CS(=O)(=O)N(CC(=O)NCc1ccc2c(c1)OCO2)c1cccc(Cl)c1 1.41 µM [activator, single point]
CCc1cccc(CC)c1NC(=O)COC(=O)C1(C)CC1(Cl)Cl (centres undefined) 28.2 µM [activator, single point]
Cc1ccc(C)c(NC(=O)CCc2ccc(S(=O)(=O)NC3CCCCC3)cc2)c1 10 µM [activator, partial curve, poor fit]
CC1=C(c2ccccc2)C=NNCC1=O 3.16 µM [activator, single point]
O=C(NC(=S)N1CCN(C/C=C/c2ccccc2)CC1)c1cccnc1 12.6 µM [activator, single point]
COC(=O)/C(=C\c1ccc([N+](=O)[O-])cc1)NC(=O)c1ccccc1 1 µM [activator, partial curve, poor fit]
CC(OC(=O)c1c[nH]c2ccccc12)C(=O)N1CCCC1 (centres undefined) 2.24 µM [activator, partial curve, poor fit]
COc1ccc(CCNC(=O)/C=C/c2ccco2)cc1 12.6 µM [activator, single point]
O=C(C1=C(O)C(=O)N(Cc2cccnc2)C1c1ccccn1)c1cccs1 (centres undefined) 2.51 µM [activator, full curve, poor fit]
COc1ccc(NC(=O)CSc2cn[nH]n2)c(OC)c1 28.2 µM [activator, single point]
O=C(Nc1ccc(S(=O)(=O)N2CCCC2)cc1)c1cccs1 3.55 µM [activator, full curve, poor fit]
COc1ccc(CN2CCN(C(=O)c3cc(C4CC4)nn3-c3ccccc3)CC2)cc1F 2.82 µM [activator, single point]
COc1cccc(CNC(=O)CCc2ccc(OC)c(OC)c2)c1 5.01 µM [activator, single point]
CN1CCN(C(=O)c2cn(-c3ccccc3)nc2-c2cccnc2)CC1 5.01 µM [activator, partial curve, poor fit]
Cc1c(C(=O)N(C)C2CCCCC2)sc2ncnc(N3CCN(c4ccccc4F)CC3)c12 7.08 µM [activator, partial curve, poor fit]
CCOc1cc(-c2nc(C)c(C(C)=O)n2O)ccc1OCC(=O)Nc1ccccc1 12.6 µM [activator, single point]
Cc1cc(Cc2cc(C)c(N)cc2C)c(C)cc1N 0.501 µM [activator, full curve, poor fit]
O=C(O)Cc1sc(NCCc2ccccc2)nc1-c1ccc(F)cc1 5.62 µM [activator, single point]
Cc1cc(=O)[nH]c(N/N=C/c2ccc3c(c2)OCCO3)n1 3.16 µM [activator, partial curve, poor fit]
COc1ccc(NS(=O)(=O)c2cc(NC(=O)CCNC(C)=O)ccc2N2CCCCC2)cc1 28.2 µM [activator, single point]
Cc1nn(CCC(=O)NNC(=S)Nc2ccc(Cl)cc2)c(C)c1[N+](=O)[O-] 5.01 µM [activator, single point]
C=CCSc1nnc(CC(OC)OC)n1-c1ccccc1 7.94 µM [activator, partial curve, poor fit]
Cc1nonc1NC(=O)c1oc2ccc(F)cc2c1C 28.2 µM [activator, single point]
CN(C)/N=C/c1cc(Cl)cc([N+](=O)[O-])c1O 10 µM [activator, single point]
O=C(O)c1nccnc1C(=O)NCc1csc2ccc(Cl)cc12 11.2 µM [activator, single point]
Clc1ccc2c(c1)CNc1c(ncnc1N1CCOCC1)O2 4.47 µM [activator, partial curve, poor fit]
CCOC(=O)N1CCC(NC(=O)CS(=O)(=O)Cc2nc(-c3cccc(Cl)c3)oc2C)CC1 5.01 µM [activator, single point]
CCC(CC)NC(=O)Cn1c(C(C)NC(C)=O)nc2ccccc21 (centres undefined) 28.2 µM [activator, single point]
O=C(CSc1ccc(-c2ccco2)nn1)N1CCCC1 3.98 µM [activator, full curve, poor fit]
C/C(=N\NS(=O)(=O)c1ccc(C(C)(C)C)cc1)c1ccccc1 12.6 µM [activator, partial curve, poor fit]
CCOc1ccc2c(c1)c(=O)c(S(=O)(=O)c1ccc(C)cc1)cn2CC 28.2 µM [activator, partial curve, poor fit]
COc1ccc(NC(=O)COC(=O)CCOc2ccccc2C)cc1Cl 0.794 µM [activator, partial curve, poor fit]
O=C(CN1CCCCC1)N/N=C/c1ccc(Cl)cc1 10 µM [activator, single point]
CC(=O)N1c2ccc(S(=O)(=O)N3CCC(C(=O)N4CCN(c5cc(Cl)ccc5C)CC4)CC3)cc2CC1C (centres undefined) 3.16 µM [activator, single point]
COc1ccccc1NC(=O)CSc1nc2ncccc2[nH]1 7.08 µM [activator, partial curve]
CCOC(=O)C1CCCCN1Cc1cccc(OCc2ccccc2)c1 (centres undefined) 5.01 µM [activator, single point]
Cc1nnc(SCC(=O)c2ccc(Br)cc2)s1 5.01 µM [activator, partial curve, poor fit]

A draw from above in order of formula weight, smallest number first:
Potency, inconclusive:
C=CCSc1nnc(CC(OC)OC)n1-c1ccccc1 7.94 µM [activator, partial curve, poor fit]
CS(=O)(=O)N(CC(=O)NCc1ccc2c(c1)OCO2)c1cccc(Cl)c1 1.41 µM [activator, single point]
COc1ccc(CN2CCN(C(=O)c3cc(C4CC4)nn3-c3ccccc3)CC2)cc1F 2.82 µM [activator, single point]

Following part.

activation, inactive:
Cc1cccnc1CCNC(=O)c1ccc(OC2CCN(Cc3ccccn3)CC2)cc1 -16.2%
Cc1ccccc1C(=O)c1c[nH]c(C(=O)N=CN(C)C)c1 -12.4%
COc1ccc(CC(=O)Nc2nc(-c3ccc(F)c(F)c3)cs2)cc1 -18.4%
Cc1cc(O)c(C(C)C)cc1N=Nc1ccccc1C(=O)O -27.5%
COc1ccc(/C=N/NC(=O)c2ccc(O)cc2O)cc1CSc1ccccn1 -1.43%
COC(C(=O)Nc1ccnn1C1CCN(C(=O)c2cccc(F)c2)CC1)c1ccccc1 (centres undefined) 13.4%
Cn1c(=O)[nH]c(NC2CCCCC2)c(N=O)c1=O 12.1%
O=C(c1cc(-c2cccs2)nc2ccccc12)N1CCN(S(=O)(=O)c2cccc(F)c2)CC1 -7.83%
N#C/C(=C/c1ccc(OCc2ccc(C(=O)O)cc2)cc1)C(=O)Nc1ccccc1 -13.2%
Cn1ncc2c(Nc3ccccc3Cl)nc(Nc3ccccc3Cl)nc21 -52.2%
O=C(c1n[nH]c(=O)c2ccccc12)N1CCOCC1 12.5%
N#Cc1nc(-c2ccc(Cl)cc2)oc1NCCc1ccccn1 23.7%
O=C(NC(=S)Nc1cccnc1Cl)c1ccc(F)cc1 9.43%
COc1cccc(C(=O)NC(=S)N2CCN(c3ccc(C(F)(F)F)cc3[N+](=O)[O-])CC2)c1 -51.1%
NCC1CCN(c2nc3ccccc3c3c2CCCC3)CC1 -55.6%
COc1cc(NC(=O)COc2cc(C)cc3oc(=O)c(C)c(C)c23)cc(OC)c1OC 11.6%
CCS(=O)(=O)c1nc(S(=O)(=O)c2ccc(Cl)cc2)c(N2CCN(CCO)CC2)s1 -11.7%
COCCSc1ccccc1C(=O)Nc1nnc(C)s1 4.09%
CCOC(=O)c1c(C)[nH]c(C(=O)OC/C(O)=C(\C#N)c2nc3ccccc3[nH]2)c1C 6.04%
O=C(Nc1ccc(S(=O)(=O)Nc2nccs2)cc1)c1cccc(N2C(=O)c3ccccc3C2=O)c1 -9.19%
CCn1cc(CN2CCCC(C(=O)Nc3ccc(-c4nc5ccccc5[nH]4)cc3)C2)c(C)n1 (centres undefined) -38.8%

Looked up one by one from the entries so far (four):
activation, inactive:
CCS(=O)(=O)c1nc(S(=O)(=O)c2ccc(Cl)cc2)c(N2CCN(CCO)CC2)s1 -11.7%
O=C(NC(=S)Nc1cccnc1Cl)c1ccc(F)cc1 9.43%
O=C(c1cc(-c2cccs2)nc2ccccc12)N1CCN(S(=O)(=O)c2cccc(F)c2)CC1 -7.83%
Cc1cc(O)c(C(C)C)cc1N=Nc1ccccc1C(=O)O -27.5%

Next part.

activation, inconclusive:
Cn1nnnc1SCC(=O)Nc1nc2c(s1)CCCC2 8.15% [activator]
